Assay results taken from patent publication US5550214A, “Isolated antigenic oncogene peptide fragments and uses” (Brigham and Women's Hospital, priority 1994, dated 1996).
Entries after “also recorded” stand apart in the source; their conditions may differ. At least one peptide structure holds a part that was inferred or is arguable (an end, a ring closure or a residue). Ends that are not written are not given here.

Legend:
OvTIL and BrTIL = test: chromium release assay against T2 pulsed with increasing concentrations of peptide; type: cell-based, human; conditions: incubations 1 hr at 37° C.; E:T 20:1
[1] = test system: HLA-A2+ ovarian cancer-specific TIL lines; test: chromium release assay, OvTIL against peptide-pulsed T2; type: cell-based, human; conditions: E:T 20:1
[2] = test system: "uneducated" ovarian lymphocytes; test: chromium release assay with ovarian lymphocytes sensitized with SEQ ID NO.:2; type: cell-based, human; conditions: E:T 20:1
[3] = test system: T-lymphocytes educated with autologous tumor; test: recognition of synthetic peptide by tumor-educated T-lymphocytes (summary statements, Example 5); type: cell-based, human; conditions: for recognition by T-lymphocytes: summary statement
HLA-A2 = biological target: T1, HLA-A2 (Homo sapiens, UniProt P04439, D140Y/D185E/D98H/E176V/E277Q/G131W/G231S/I119V/I121R/I166T/I218V/L300P/L318F/N151K/N90K/P208A/P217A/Q86G/Q94H/R138H/R169H/T345S); test: monoclonal antibody blocking of lysis of SEQ ID NO.:2-pulsed T2; type: cell-based; conditions: mAb blocking studies
T1 construct: HLA-A2 molecules are present on the cell surface with relatively few endogeous peptides; endogenous in cells; host or cells: T2 (human T cell/B cell fusion line, HLA-A2+)

[4] = test system: HLA-A2+ lung cancer-specific T-lymphocyte line; test: chromium release assay, non-small cell lung cancer TIL against peptide-pulsed T2; type: cell-based, human
[5] = test system: HLA-A2+ breast cancer-specific TIL lines; test: chromium release assay, BrTIL against peptide-pulsed T2; type: cell-based, human
dissolving the peptide = type: physicochemical
[6] = T2 incubated with 50-100 ug/ml peptide 1 hr 37° C., E:T 20:1

Molecule	recognition at increasing peptide concentrations (OvTIL and BrTIL)	level of recognition of the peptide-pulsed T2 relative to HLA-A2+ allogeneic control ([1]; OvTIL)	recognition of peptide-pulsed T2 by OvTIL ([1]; T2 incubated with 50-100 ug/ml peptide 1 hr 37° C.)	recognition of tumor by lymphocytes sensitized with the peptide ([2]; allogeneic HLA-A2+, HER2/neu+ ovarian tumor targets, bars 3 and 4 of FIG. 8)	recognition of peptide presented on T2 by SEQ ID NO.:2-educated lymphocytes ([2]; bar 2 of FIG. 8)	recognition by T-lymphocytes [3]	HLA restriction of lysis of peptide-pulsed T2 (HLA-A2)	recognition of peptide-pulsed T2 by lung cancer-specific T-lymphocyte line [4, 6]	level of killing ([4]; lung cancer-specific T-lymphocyte line, compared with OvTIL and BrTIL)	level of killing ([5]; BrTIL, effector:target ratio of 20:1)	recognition of peptide-pulsed T2 by BrTIL [5, 6]	hydrophobicity (dissolving the peptide)	dissolving the peptide (dissolving the peptide; acetic acid, acetonitrile, methanol, water or HBSS tried)	induction of proliferation of cancer-specific CTL's ([3]; sequence description)
CC[C@H](C)[C@H](N)C(=O)N[C@H](C(=O)N[C@@H](CO)C(=O)N[C@@H](C)C(=O)N[C@H](C(=O)N[C@H](C(=O)NCC(=O)N[C@H](C(=O)N[C@@H](CC(C)C)C(=O)O)[C@@H](C)CC)C(C)C)C(C)C)[C@@H](C)CC [SEQ ID NO.:2, Ile Ile Ser Ala Val Val Gly Ile Leu]	dose-response manner; also recorded: dose response manner	approximately 50%	recognize	recognize endogenous tumor	induce recognition	recognized; also recorded: recognition	HLA-A2-restricted; also recorded: HLA-A2 restricted	recognize	comparable to that found by OvTIL and BrTIL	10-25%	recognize	so hydrophobic; also recorded: extremely hydrophobic	difficulties in dissolving it	–
PLTSIISAV [SEQ ID NO.:4, Pro Leu Thr Ser Ile Ile Ser Ala Val, reference compound]	No significant recognition	–	–	–	–	not recognized	–	–	–	–	–	–	–	does not induce proliferation
